# Results deposited as PubChem BioAssay AID493246 (Drosophila RNAi Screening Center, 2011)
# Assay: 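Genes fly cells need to grow and stay alive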 (primary screen)
# System: Drosophila Kc and S2R+ cells
# Reagents: long dsRNA against Drosophila genes
# Measurement: 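Raw, unnormalised count of remaining cells in each well; per-plate z-scores of cell number underlie the calls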
# Direction: Kc cell number and S2R+ cell number: higher = more cells remaining
# Hit rule: 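Active when the per-plate z-score of cell number is 3 or more in the direction of fewer cells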
# In all, the deposit lists about 21,000 reagents; shown is an unselected part of those with a known target gene and a result. Over the whole deposit, 429 (2%) were called active. 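Values are raw and not normalised between plates; calls rest on per-plate z-scores that were not deposited.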 A plus sign joins genes that one reagent is predicted to hit. Not given: the amount of reagent, the time to read-out.
gene,dsRNA,"Kc cell number, rep 1","Kc cell number, rep 2","S2R+ cell number, rep 1","S2R+ cell number, rep 2",Outcome
Fer1HCH,DRSC16671,4.93e5,,6.55e5,,inactive
TMEM216,DRSC16378,1.37e6,1.58e6,1.25e6,1.37e6,inactive
jv,DRSC08831,1.36e6,1.50e6,1.10e6,1.24e6,inactive
jv,DRSC08832,1.42e6,1.55e6,1.09e6,1.24e6,inactive
CG8301,DRSC16405,1.62e6,1.66e6,1.39e6,1.46e6,inactive
CG34345,DRSC02126,1.51e6,1.42e6,1.11e6,1.30e6,inactive
CG31787,DRSC01632,1.53e6,1.57e6,9.74e5,1.25e6,inactive
CG12715,DRSC19492,1.51e6,1.51e6,1.04e6,1.13e6,inactive
Mabi,DRSC02489,1.66e6,1.69e6,1.40e6,1.51e6,inactive
ND5 (retired record),DRSC21281,1.84e6,1.86e6,1.23e6,1.39e6,inactive
Gr93a,DRSC14593,1.20e6,1.35e6,9.90e5,1.13e6,inactive
Fas2,DRSC17308,1.32e6,1.41e6,9.64e5,1.01e6,inactive
Fas2,DRSC17309,1.11e6,1.38e6,1.09e6,1.05e6,inactive
Fas2,DRSC18664,5.90e5,,8.71e5,,inactive
IleRS-m,DRSC10506,1.25e6,1.41e6,1.26e6,1.34e6,inactive
Dfd,DRSC12593,1.34e6,1.46e6,1.37e6,1.48e6,inactive
CG3630,DRSC18499,5.14e5,,7.59e5,,inactive
CG7881,DRSC04898,1.50e6,1.50e6,1.28e6,1.46e6,inactive
Tsp39D,DRSC03099,1.61e6,1.64e6,1.36e6,4.39e5,inactive
GM130,DRSC04617,1.34e6,1.43e6,9.77e5,1.10e6,inactive
CG13334,DRSC06369,1.47e6,1.51e6,1.20e6,1.34e6,inactive
Usp20-33,DRSC07196,1.44e6,1.50e6,1.14e6,1.22e6,inactive
CG1620,DRSC06603,1.32e6,1.38e6,9.20e5,1.00e6,inactive
Sox21a,DRSC10819,1.52e6,1.50e6,1.23e6,1.27e6,inactive
CG15196,DRSC19643,1.51e6,1.41e6,1.05e6,1.05e6,inactive
Or49b,DRSC07494,1.66e6,1.64e6,1.35e6,1.49e6,inactive
CG13305,DRSC09975,1.64e6,1.68e6,1.04e6,1.04e6,inactive
Pstk + CG14210 + Tim9b,DRSC19566,1.44e6,1.43e6,8.44e5,9.86e5,inactive
GluProRS,DRSC14095,1.45e6,1.49e6,1.13e6,1.20e6,inactive
Iru,DRSC14457,1.45e6,1.51e6,1.18e6,1.24e6,inactive
mRpL52,DRSC06585,1.64e6,1.65e6,1.22e6,1.38e6,inactive
AIMP3,DRSC04500,1.60e6,1.71e6,1.34e6,1.36e6,inactive
CG1523,DRSC15033,5.19e5,,8.14e5,,inactive
CG15742,DRSC19708,6.19e5,,7.98e5,,inactive
CG7080,DRSC16193,1.57e6,1.57e6,1.19e6,1.23e6,inactive
TfIIS,DRSC03455,1.35e6,1.42e6,1.24e6,1.25e6,inactive
BthD,DRSC19395,1.68e6,1.45e6,1.10e6,1.22e6,inactive
TwdlM,DRSC15810,1.58e6,1.66e6,1.01e6,1.13e6,inactive
CG13578,DRSC04214,1.74e6,1.80e6,1.37e6,1.42e6,inactive
geko,DRSC10044,1.20e6,1.36e6,1.29e6,1.41e6,inactive
geko,DRSC10045,1.41e6,1.57e6,1.36e6,1.45e6,inactive
CG34408,DRSC17733,6.40e5,,9.13e5,,inactive
spn-E,DRSC17064,1.46e6,1.54e6,1.23e6,1.33e6,inactive
Nf-YC,DRSC18272,3.85e5,4.66e5,3.98e5,5.20e5,active
Vha16-5,DRSC02986,1.43e6,1.78e6,1.44e6,1.57e6,inactive
CG7322,DRSC20036,1.51e6,1.54e6,1.06e6,1.19e6,inactive
kri,DRSC10515,1.46e6,1.54e6,1.14e6,9.19e5,inactive
Ndg,DRSC06223,1.38e6,1.49e6,1.00e6,8.96e5,inactive
CG11842,DRSC14400,5.51e5,,8.28e5,,inactive
AIMP1,DRSC07118,1.59e6,1.67e6,1.20e6,1.27e6,inactive
CG14502,DRSC06473,1.32e6,1.39e6,1.26e6,1.25e6,inactive
DUBAI,DRSC07281,1.28e6,1.32e6,1.12e6,1.16e6,inactive
CG14780,DRSC18566,1.53e6,1.45e6,9.59e5,1.07e6,inactive
MFS10,DRSC19888,6.22e5,,9.02e5,,inactive
CG17780,DRSC15265,1.34e6,1.53e6,1.03e6,1.15e6,inactive
CG8034,DRSC20076,1.55e6,1.61e6,9.95e5,1.15e6,inactive
Indy-2 + CG33934,DRSC15685,1.53e6,1.57e6,1.25e6,1.26e6,inactive
Indy-2 + CG33934,DRSC15686,1.42e6,1.44e6,1.02e6,1.10e6,inactive
CG32354,DRSC10763,1.41e6,1.43e6,1.20e6,1.14e6,inactive
CG32354,DRSC10775,1.46e6,1.51e6,1.04e6,1.13e6,inactive
Impbeta11,DRSC07525,1.64e6,1.71e6,1.37e6,1.53e6,inactive
CG15362,DRSC00392,1.48e6,1.53e6,1.06e6,1.22e6,inactive
CG6503,DRSC16056,1.75e6,1.87e6,9.79e5,1.17e6,inactive
cad,DRSC03502,8.30e5,9.13e5,4.33e5,4.01e5,active
CG9586,DRSC03270,1.61e6,1.62e6,1.18e6,1.27e6,inactive
CG5357 (retired record),DRSC04497,1.43e6,1.54e6,1.27e6,1.39e6,inactive
CG30395,DRSC03896,5.77e5,,8.81e5,,inactive
sing,DRSC19530,1.50e6,1.50e6,1.13e6,1.15e6,inactive
CG8219,DRSC10971,1.39e6,1.39e6,1.13e6,1.16e6,inactive
CG12219,DRSC17829,1.47e6,1.46e6,1.01e6,1.10e6,inactive
CG32568,DRSC19913,1.51e6,1.50e6,1.16e6,1.21e6,inactive
Pka-C2,DRSC16790,1.53e6,1.54e6,9.63e5,1.09e6,inactive
CG7829,DRSC16322,1.43e6,1.44e6,1.01e6,1.12e6,inactive
CG30457,DRSC06661,1.56e6,1.62e6,1.12e6,1.22e6,inactive
p24-1,DRSC19827,1.53e6,1.48e6,9.22e5,1.01e6,inactive

An excerpt from above, reduced to “S2R+ cell number, rep 2”:
CG1620 [DRSC06603]: 1.00e6
Sox21a [DRSC10819]: 1.27e6
CG15196 [DRSC19643]: 1.05e6
Or49b [DRSC07494]: 1.49e6
CG13305 [DRSC09975]: 1.04e6
Pstk + CG14210 + Tim9b [DRSC19566]: 9.86e5
GluProRS [DRSC14095]: 1.20e6
Iru [DRSC14457]: 1.24e6
mRpL52 [DRSC06585]: 1.38e6
AIMP3 [DRSC04500]: 1.36e6
